Measured values: publication PMC10197942
No constants are given. Whether binding was seen depends on the method and setting. Binding seen in cells or lysates may run through a third protein. Some results given as binding are weak or reduced against the parent protein; the word gives no strength.

By UniProt entry, the sequences of proteins in these tests, tags left out.
UniProt P22626: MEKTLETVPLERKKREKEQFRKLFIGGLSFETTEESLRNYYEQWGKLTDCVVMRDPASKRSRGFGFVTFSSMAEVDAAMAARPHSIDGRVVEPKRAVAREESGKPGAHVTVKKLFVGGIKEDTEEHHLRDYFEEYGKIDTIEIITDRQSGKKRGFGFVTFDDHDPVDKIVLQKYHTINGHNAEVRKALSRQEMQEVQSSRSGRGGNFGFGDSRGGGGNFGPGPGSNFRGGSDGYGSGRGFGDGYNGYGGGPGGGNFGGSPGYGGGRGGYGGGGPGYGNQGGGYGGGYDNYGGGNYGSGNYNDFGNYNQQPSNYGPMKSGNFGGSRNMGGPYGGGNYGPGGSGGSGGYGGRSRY

Target: Heterogeneous nuclear ribonucleoprotein A2/B1 (human (endogenous in DU145 and PC3)) (UniProt P22626)
Assay: co-IP; lysates of DU145 and PC3 cells; incubated with anti-HNRNPA2B1 or anti-DGCR8 (IgG as negative control) at 4°C overnight, then magnetic beads at room temperature; eluted proteins analysed by western blotting with anti-HNRNPA2B1 and anti-DGCR8

binding: binds
B1: DiGeorge syndrome critical region gene 8 (protein, UniProt Q8WYQ5 1-773)
chain: METDESPSPLPCGPAGEAVMESRARPFQALPREQSPPPPLQTSSGAEVMDVGSGGDGQSELPAEDPFNFYGASLLSKGSFSKGRLLIDPNCSGHSPRTARHAPAVRKFSPDLKLLKDVKISVSFTESCRSKDRKVLYTGAERDVRAECGLLLSPVSGDVHACPFGGSVGDGVGIGGESADKKDEENELDQEKRVEYAVLDELEDFTDNLELDEEGAGGFTAKAIVQRDRVDEEALNFPYEDDFDNDVDALLEEGLCAPKKRRTEEKYGGDSDHPSDGETSVQPMMTKIKTVLKSRGRPPTEPLPDGWIMTFHNSGVPVYLHRESRVVTWSRPYFLGTGSIRKHDPPLSSIPCLHYKKMKDNEEREQSSDLTPSGDVSPVKPLSRSAELEFPLDEPDSMGADPGPPDEKDPLGAEAAPGALGQVKAKVEVCKDESVDLEEFRSYLEKRFDFEQVTVKKFRTWAERRQFNREMKRKQAESERPILPANQKLITLSVQDAPTKKEFVINPNGKSEVCILHEYMQRVLKVRPVYNFFECENPSEPFGASVTIDGVTYGSGTASSKKLAKNKAARATLEILIPDFVKQTSEEKPKDSEELEYFNHISIEDSRVYELTSKAGLLSPYQILHECLKRNHGMGDTSIKFEVVPGKNQKSEYVMACGKHTVRGWCKNKRVGKQLASQKILQLLHPHVKNWGSLLRMYGRESSKMVKQETSDKSVIELQQYAKKNKPNLHILSKLQEEMKRLAEEREETRKKPKMSIVASAQPGGEPLCTVDV
